Source: doi:10.1101/672824

By UniProt entry, the sequences of proteins in these tests, tags left out. Where a name states a change or a piece, a line headed by the entry shows the natural chain unless it says otherwise. Chains listed by the source or under a name are the forms on record and can include a tag or linker.
UniProt Q15672: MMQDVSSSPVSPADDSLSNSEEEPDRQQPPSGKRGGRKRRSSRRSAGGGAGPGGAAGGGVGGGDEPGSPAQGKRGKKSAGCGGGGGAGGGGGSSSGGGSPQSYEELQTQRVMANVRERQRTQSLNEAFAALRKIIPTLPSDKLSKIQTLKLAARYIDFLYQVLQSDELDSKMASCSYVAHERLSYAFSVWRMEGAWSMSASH
GATA1 (A0A8I3QVV2, form named): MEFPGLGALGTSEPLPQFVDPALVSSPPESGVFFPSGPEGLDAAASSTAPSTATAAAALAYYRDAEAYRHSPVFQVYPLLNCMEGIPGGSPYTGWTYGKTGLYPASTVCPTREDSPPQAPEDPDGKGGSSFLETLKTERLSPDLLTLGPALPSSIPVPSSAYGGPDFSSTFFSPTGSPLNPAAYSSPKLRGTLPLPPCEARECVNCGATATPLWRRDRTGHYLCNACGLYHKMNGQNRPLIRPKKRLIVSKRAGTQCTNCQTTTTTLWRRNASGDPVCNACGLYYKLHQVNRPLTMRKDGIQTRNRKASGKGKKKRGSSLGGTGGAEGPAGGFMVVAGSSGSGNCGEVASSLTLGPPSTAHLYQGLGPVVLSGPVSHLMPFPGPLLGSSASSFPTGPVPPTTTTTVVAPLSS
TRIP6 (A0A8I3MIK5, form named): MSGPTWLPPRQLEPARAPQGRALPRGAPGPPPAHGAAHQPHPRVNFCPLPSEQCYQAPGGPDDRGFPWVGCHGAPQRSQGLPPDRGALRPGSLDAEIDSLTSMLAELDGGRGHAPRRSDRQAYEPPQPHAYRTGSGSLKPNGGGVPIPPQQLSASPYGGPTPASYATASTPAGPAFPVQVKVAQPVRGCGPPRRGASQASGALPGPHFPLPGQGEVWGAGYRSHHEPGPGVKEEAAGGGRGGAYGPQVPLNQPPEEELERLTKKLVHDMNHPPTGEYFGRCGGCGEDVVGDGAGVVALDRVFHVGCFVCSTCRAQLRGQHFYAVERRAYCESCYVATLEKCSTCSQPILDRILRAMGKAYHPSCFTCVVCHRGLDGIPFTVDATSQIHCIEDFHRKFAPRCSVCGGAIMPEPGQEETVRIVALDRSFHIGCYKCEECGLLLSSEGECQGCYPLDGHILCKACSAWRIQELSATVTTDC

Target: human TWIST1 (hTWIST1) stably over-expressed in MDCK cells (human) (UniProt Q15672)
Assay: affinity purification with mass spectrometry

| Substance | binding |
| --- | --- |
| GATA1 (from UniProt A0A8I3QVV2 1-412) | binds |
| TRIP6 (from UniProt A0A8I3MIK5 1-478) | binds |

No constants are given. Whether binding was seen depends on the method and setting. In cells and extracts the contact can be indirect. These calls come from enrichment with a bait or labelling near it, and not all partners need be listed.
